These are yes or no findings as the source states them, for the method shown. Some entries that bind do so weakly or less than the wild type.

Sequences of proteins named here, by UniProt entry; tags and fusion partners are left off.
UniProt P06537: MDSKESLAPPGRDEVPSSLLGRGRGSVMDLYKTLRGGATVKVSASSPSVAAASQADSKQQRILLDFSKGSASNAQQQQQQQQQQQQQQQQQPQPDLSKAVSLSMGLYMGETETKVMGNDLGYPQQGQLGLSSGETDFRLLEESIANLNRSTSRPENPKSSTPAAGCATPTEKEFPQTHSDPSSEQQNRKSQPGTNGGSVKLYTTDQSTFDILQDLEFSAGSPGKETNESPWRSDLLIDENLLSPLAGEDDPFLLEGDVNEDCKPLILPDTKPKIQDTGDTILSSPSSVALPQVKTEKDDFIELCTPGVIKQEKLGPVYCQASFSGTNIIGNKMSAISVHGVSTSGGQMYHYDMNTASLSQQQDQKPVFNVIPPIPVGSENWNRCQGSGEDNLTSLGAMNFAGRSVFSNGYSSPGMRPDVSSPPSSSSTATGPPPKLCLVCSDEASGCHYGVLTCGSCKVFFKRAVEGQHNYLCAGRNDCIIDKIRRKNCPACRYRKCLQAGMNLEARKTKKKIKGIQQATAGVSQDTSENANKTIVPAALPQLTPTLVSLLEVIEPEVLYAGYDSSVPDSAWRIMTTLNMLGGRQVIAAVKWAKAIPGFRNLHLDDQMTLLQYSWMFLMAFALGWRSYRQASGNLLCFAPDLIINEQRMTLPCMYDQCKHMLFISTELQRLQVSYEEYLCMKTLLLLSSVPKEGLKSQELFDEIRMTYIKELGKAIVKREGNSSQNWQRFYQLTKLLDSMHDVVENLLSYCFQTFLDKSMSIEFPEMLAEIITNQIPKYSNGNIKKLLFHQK
UniProt P28033: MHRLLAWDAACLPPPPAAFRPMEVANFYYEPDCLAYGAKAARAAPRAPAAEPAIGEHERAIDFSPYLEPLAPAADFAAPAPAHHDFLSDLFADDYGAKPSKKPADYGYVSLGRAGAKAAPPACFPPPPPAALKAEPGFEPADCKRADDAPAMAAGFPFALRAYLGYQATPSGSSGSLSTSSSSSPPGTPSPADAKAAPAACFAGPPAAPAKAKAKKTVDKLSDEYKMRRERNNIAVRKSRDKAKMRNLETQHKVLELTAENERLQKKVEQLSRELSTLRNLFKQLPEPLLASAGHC

Results on one substance are retold here after article PMC4205011.

The target of the assay is glucocorticoid receptor (mouse (endogenous in BWTG3)) (UniProt P06537). The assay can be described thus: re-ChIP (sequential chromatin immunoprecipitation); BWTG3 cells treated with 10 µM DEX or vehicle for 2 hrs, cross-linked with 1% formaldehyde; first immunoprecipitation with anti-GR antibody, eluted with 10 mM dithiothreitol and 1% SDS, second immunoprecipitation with anti-C/EBPβ antibody or control IgG; read out by qPCR of the mouse Cbg promoter (regions P5 to P1).

For “CAAT/enhancer binding protein beta (from UniProt P28033 1-296)”, the binding result is on record as “binds”.
